± gives the standard deviation of the averaged measurements. The list shows a part of the results. Single values are uncertain, as repeats are few or missing.

In this experiment the test system is RAW 264.7 macrophages infected with S. aureus JE2-lux. As to the kind of experiment: host macrophage viability (CellTiter-Fluor) relative to DMSO vehicle; higher = more viable host cells. The conditions noted are these: 10 µM; treatment time 4 h; gentamicin 50 µg/ml.
For `CC(=O)c1cccc(NC(=O)c2cc3cccnc3n(C)c2=O)c1`, the host macrophage viability was found to be 114%.

Take `Cc1ccc(C)c(NC(=O)c2ccc(S(=O)(=O)N3CCCCC3C)cc2)c1` (configuration not stated): the host macrophage viability came to 115%.

As to `CCn1c(CN2CCNCC2)nc2cc(C(=O)N(C)C)ccc21`, the host macrophage viability turned out to be 129%.

For `CCOC(=O)c1ccc2cc3c(cc2c1O)OCCO3`, the host macrophage viability was found to be 113%.

On to `Cc1ncc(C(=O)NC(c2ccccc2)c2cccnc2)c(C)n1` (configuration not stated), for which the host macrophage viability was found to be 116%.

As for `COc1ccc(NC(=O)c2sc(C)nc2-c2ccccc2)cc1`, the host macrophage viability is 107%.

`COc1ccc(Cl)cc1Nc1nnc(C)c(=O)[nH]1`: the host macrophage viability was determined as 97.9%.

In the case of `CC(=O)c1cccc(Nc2cc(C(F)(F)F)nc3ncnn23)c1`, the host macrophage viability stood at 126%.

For `CC(=O)NC1(c2ccc(F)cc2)CCN(Cc2ccc3cccc(Cl)c3n2)CC1`, the host macrophage viability was 109%.

For the compound `CCc1nc(OCC(=O)NCc2ccc(OC(C)C)cc2)c2c(C)c(C)oc2n1`, the host macrophage viability is 115%.

As to `O=C1C=C/C(=N\Nc2cc3c(cc2[N+](=O)[O-])OCCO3)c2ccccc21`, the host macrophage viability came to 111%.

For `Cc1cc(O)nc(SCc2nc3ncccn3c2Br)n1`, the host macrophage viability was found to be 117%.

In the case of `Cc1cc(C)c2[nH]c(=O)c(CN(C(=O)Nc3ccccc3C)C3CC3)cc2c1`, the host macrophage viability was 114%.

As for `COc1cccc(CN2N=NC3C(=O)N(c4ccc(OC)c(OC)c4)C(=O)C32)c1` (configuration not stated), the host macrophage viability was 118%.

Consider `Cc1csc(-c2csc(S(=O)(=O)N3CCc4ccccc4C3)c2)n1`, for which the host macrophage viability was 86%.

Regarding `Cc1ccc(NC(=O)CSc2nc3c(oc4ccccc43)c(=O)[nH]2)cc1C`, the host macrophage viability was determined as 124%.

Take `Cc1cn(C2OC(COC(=O)c3ccccc3)C(O)C2O)c(=O)[nH]c1=O` (configuration not stated): the host macrophage viability was 110%.

With `Cc1c(Cl)cccc1S(=O)(=O)N1CCN(c2cc(C)c3c(C)nn(-c4ccccc4)c3n2)CC1`, the host macrophage viability came out at 94.7%.

As to `COc1ccc(Cl)c2sc(NC(=O)CN3C(=O)c4ccccc4C3=O)nc12`, the host macrophage viability came to 89.2%.

Regarding `COc1cccc(OCc2nnc(SCC(=O)Nc3cc(C)on3)n2C)c1`, the host macrophage viability was found to be 96.7%.

As for `CN(C)c1ncc(C(=O)NC(c2ccccc2)c2cccnc2)cn1` (configuration not stated), the host macrophage viability came to 114%.

As for `CS(=O)(=O)c1ccc(CC(=O)Nc2ccc3ncsc3c2)cc1`, the host macrophage viability was found to be 112%.

In the case of `COc1ccc(CCNC(=O)Cc2cc(=O)[nH]c(=O)[nH]2)cc1OC`, the host macrophage viability came to 97.5%.

As for `Cc1cc(-c2cncnc2C2CCN(C(=O)c3cn(C)nc3C)CC2)on1`, the host macrophage viability was found to be 120%.

Take `COc1ccc(NC(=O)CN2C(=O)N(C)N(C)c3ncccc32)cc1OC`: the host macrophage viability worked out at 119%.

As for `COc1ccc(C2=C(C)C(N3CCC(C(=O)NCCC(C)C)CC3)=NS2(=O)=O)cc1`, the host macrophage viability stood at 129%.

Turning to `COc1ccc(-c2cn3c(C)c(C(=O)N4CCN(Cc5ccccc5)CC4)sc3n2)cc1`, the host macrophage viability is 124%.

On to `Cc1cccn2c(=O)nc(SCc3ccc(F)cc3)nc12`, for which the host macrophage viability was determined as 114%.

Regarding `COc1ccc(-c2cc(-c3ccccc3)nc(SCC(=O)Nc3nccs3)c2C#N)cc1`, the host macrophage viability turned out to be 121%.

Take `CC(c1ccccc1)N1CCn2c(nc3ccccc32)C1` (configuration not stated): the host macrophage viability was 109%.

As to `CCOc1ccccc1C1Nc2ccc(CC)cc2[C@H]2OCCC[C@@H]12` (some centres not stated), the host macrophage viability was determined as 106%.

Regarding `Cc1ccc(NC(=O)C2OCOc3ccccc32)cc1N1CCCCC1` (configuration not stated), the host macrophage viability is 117%.

Turning to `O=C(CS(=O)CC(=O)Nc1cnc2ccccc2c1)Nc1ccc(Cl)cc1` (configuration not stated), the host macrophage viability turned out to be 116%.

In the case of `O=C(CSc1nc2[nH]ncc2c(=O)n1-c1ccccc1)Nc1ccc(Cl)cc1Cl`, the host macrophage viability was 115%.

With `Cc1ccc(S(=O)(=O)CCCC(=O)Nc2nc3c(C)c(Cl)ccc3s2)cc1`, the host macrophage viability was 76.8%.

With `N#Cc1nc(/C=C/c2cccs2)oc1N1CCNCC1`, the host macrophage viability was 114%.

As to `CC1(C)Oc2ccc(S(=O)(=O)NCCCN3CCOCC3)cc2NC1=O`, the host macrophage viability was found to be 107%.

For the compound `CCc1cc2c(N3CCCC(C(=O)Nc4cc(C)ccc4OC)C3)ncnc2s1` (configuration not stated), the host macrophage viability is 125%.

With `Cc1ccc(-n2nnc3c(=O)n(CC(=O)N4CCc5ccccc54)cnc32)cc1C`, the host macrophage viability amounted to 118%.

For `O=C(Cc1ccc(Cl)cc1)Nc1cccc(-c2ccc3nncn3n2)c1`, the host macrophage viability was 112%.

Turning to `N#CC1=C(SCC(=O)Nc2ccccc2F)NC2=C(C(=O)CCC2)C1c1ccco1` (configuration not stated), the host macrophage viability is 123%.

Regarding `Cc1ccc(OCC(=O)N/N=C/c2ccccc2O)cc1`, the host macrophage viability stood at 127%.

As for `Cc1cc(Cl)ccc1OCC(=O)Nc1ccc(S(=O)(=O)Nc2onc(C)c2C)cc1`, the host macrophage viability is 108 ± 6.4%.

As to `CCc1ccc(S(=O)(=O)c2c(C(=O)N3CCCC3)cnc3ccc(C)cc23)cc1`, the host macrophage viability came out at 114%.

Consider `CCOc1ccc(-n2ccnc(NCc3ccc4c(c3)OCO4)c2=O)cc1`, for which the host macrophage viability was found to be 120%.

As for `CC1CC(C)CN(C(=O)c2cccn3c(-c4ccc(F)cc4)nnc23)C1` (configuration not stated), the host macrophage viability stood at 118%.

In the case of `COc1cc(NS(=O)(=O)c2cc(-c3nc(C)cs3)cs2)cc(OC)c1`, the host macrophage viability is 120%.

Take `CCc1cccc(OCC(O)Cn2c(N3CCN(C)CC3)nc3c2c(=O)[nH]c(=O)n3C)c1` (configuration not stated): the host macrophage viability came to 135%.

With `Cc1c(C(=O)C2=C(O)C(=O)N(CCN(C)C)C2c2ccco2)cnn1-c1ccccc1` (configuration not stated), the host macrophage viability turned out to be 104%.

Consider `COc1cccc(NC(=O)CSc2nc(-c3ccccc3)nc3c2Cc2cccc(OC)c2O3)c1`, for which the host macrophage viability came to 114%.

Take `N#Cc1c(O)nc(N2CCCCC2)nc1-c1ccc2c(c1)OCO2`: the host macrophage viability stood at 122%.

As for `CCOC(=O)c1ccccc1NC(=O)CSc1ncc(CO)n1Cc1ccc(OC)cc1`, the host macrophage viability came to 108%.

For the compound `NC(=O)c1ccccc1NC(=O)c1cccn(OCc2ccccc2F)c1=O`, the host macrophage viability is 128%.

Consider `Cc1ccccc1-c1nc2sc(N3CCN(CC(=O)N4CCCC4)CC3)nn2c1NC(C)(C)C`, for which the host macrophage viability turned out to be 105%.

`O=C(Cc1cc(=O)[nH]c(=O)[nH]1)N1CCN(C(=O)c2ccco2)CC1`: the host macrophage viability came to 114%.

For the compound `Cc1cc(=O)n2nc(NCc3ccc(C(=O)Nc4ccc(C)c(Cl)c4)cc3)nc2[nH]1`, the host macrophage viability is 119%.

For the compound `O=C(CSc1ncccc1C(=O)O)Nc1ccc(Cl)cc1`, the host macrophage viability was 127%.

For the compound `COc1ccc(N2CC(NC(=O)Nc3nc4ccc(C)cc4s3)CC2=O)cc1OC` (configuration not stated), the host macrophage viability was 125%.

In the case of `Cc1ccc(S(=O)(=O)CCCC(=O)Nc2ccc3c(c2)C(=O)NC3=O)cc1`, the host macrophage viability is 135%.

Consider `CC(C)(C)C(=O)N1CCC(NS(=O)(=O)c2ccc3c(c2)NC(=O)CO3)CC1`, for which the host macrophage viability came out at 115%.

As to `CCN(c1ccccc1)S(=O)(=O)c1ccc2[nH]c(=O)cc(C)c2c1`, the host macrophage viability stood at 122%.

`O=C(Cn1cccc1-c1nc(-c2ccccc2)cs1)N1CC=C(c2ccccc2)CC1`: the host macrophage viability came to 116%.

Turning to `COc1ccc2cc(CCNC(=O)c3cccc(C(F)(F)F)c3)c(=O)[nH]c2c1`, the host macrophage viability worked out at 123%.

Turning to `COC(=O)c1ccc(C(=O)NNc2nc3c(C)cc(C)cc3s2)cc1`, the host macrophage viability came to 141 ± 14%.

`O=C(CCc1ccccc1)Nc1c2c(nn1-c1ccccc1)CS(=O)(=O)C2`: the host macrophage viability came to 93%.

As to `O=C(NCCCSc1nc2ccccc2o1)Nc1ncccn1`, the host macrophage viability was determined as 114%.

Consider `Nc1cc(-c2ccco2)nn(CC(=O)NCC2COc3ccccc3O2)c1=O` (configuration not stated), for which the host macrophage viability is 110%.

Values taken from the supplement of paper PMC12578635.
